PubChem BioAssay AID504786, Drosophila RNAi Screening Center | 2011
The screen tested about 21,000 reagents; this is an unselected part of those that have a named target and a result. 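Primary screen; positive scores mean lost reporter signal, so the sign may be inverted from the usual convention.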 A plus sign joins genes that one reagent is predicted to hit. Not all columns of the deposit are shown. No sequences are given here.

- Purpose: 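Fly genes required for HIF-dependent transcription when hypoxia is mimicked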 (primary screen)
- System: Drosophila S2 cells with a stable HIF luciferase reporter
- Knock-down reagent: long dsRNA against Drosophila genes, about 0.2 µg dsRNA per well of a 384-well plate
- Timing: three days of knock-down, then 20 h of DFO before reading
- Conditions: desferrioxamine (DFO) at 100 µM, an iron chelator that mimics hypoxia, for 20 h
- Measured: 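HIF reporter luminescence in cells given 100 µM DFO for 20 h, using the mouse ldh-a hypoxia-response element, scored as per-plate z-scores; higher means greater loss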
- Direction: z-score: higher = stronger loss of HIF reporter signal

z-score, replicate 1, by gene and reagent
Inx2 (Innexin 2): DRSC18783 -0.3
CG30286: DRSC04070 -0.2
TkR99D (Tachykinin-like receptor at 99D): DRSC16881 -0.3
mRpL35 (mitochondrial ribosomal protein L35): DRSC14586 1.5
CG16820: DRSC02522 -0.3
Oatp30B (Organic anion transporting polypeptide 30B): DRSC02727 -0.3
eIF4E7 (eukaryotic translation initiation factor 4E7): DRSC17782 -0.4; DRSC18623 -0.4
CG14797: DRSC17955 -0.3
CG14427: DRSC17921 -0.1
Ppr-Y: DRSC20892 -0.3
Ptpa (Phosphotyrosyl phosphatase activator): DRSC00776 -0.3
Pdhb (Pyruvate dehydrogenase E1 beta subunit): DRSC14420 0
luna: DRSC05253 -0.2; DRSC06663 3.1; DRSC07336 -0.1
l(2)SH0834 (lethal (2) SH0834): DRSC02854 0
unc-5: DRSC05545 -0.2; DRSC07711 -0.2; DRSC07712 -0.2
Naus (Nausicaa): DRSC06011 -0.1; DRSC06469 0.2
Gclm (Glutamate-cysteine ligase modifier subunit): DRSC15677 -0.3
Pfdn4 (Prefoldin 4): DRSC09761 -0.2
reb (rebuf): DRSC06308 -0.3
Cpr49Ab (Cuticular protein 49Ab): DRSC05341 -0.3
PH4alphaNE3 (prolyl-4-hydroxylase-alpha NE3): DRSC16541 -0.3
mbm + CG11555: DRSC00315 -0.3
dgo (diego): DRSC06134 -0.3
Pex11ab (Peroxin 11a/b): DRSC07145 -0.3
Itgbn (Integrin betanu subunit): DRSC03493 -0.3
upd3 (unpaired 3): DRSC19636 0.2; DRSC19968 -0.2
nahoda: DRSC03954 -0.5; DRSC04126 -0.1
CG15177: DRSC12557 -0.4
fd3F (retired record): DRSC17843 -0.3
pea (peanuts): DRSC07120 3.2
CG11404: DRSC11656 -0.2
CG14095: DRSC10098 -0.2
CG1635: DRSC15131 -0.1
CG9799: DRSC16567 0.4
CG14882: DRSC15006 -0.3
CG6574: DRSC16070 -0.2
CG8519: DRSC10985 -0.3
CG31823: DRSC01887 -0.1
CG14857: DRSC14981 -0.3
CG11825: DRSC06090 -0.2
CG10752: DRSC09799 0
CG31642: DRSC02919 -0.2
Daao2 (D-amino acid oxidase 2): DRSC02135 -0.3
Cyp6a18 (Cytochrome P450 6a18): DRSC16632 -0.5
CG11368: DRSC17778 -0.3
bwa (brain washing): DRSC01749 -0.2; DRSC02310 -0.2
Top1 (Topoisomerase 1): DRSC20295 -0.3
Ssl (Suppressor of Stellate-like): DRSC04657 -0.1
pall (pallbearer): DRSC10364 0.3
CG42537: DRSC12519 -0.3
CG34320 (retired record): DRSC17682 0.1
CG15212: DRSC10212 -0.3
CG7655: DRSC16275 -0.2
Roe1: DRSC07534 -0.1
prom (prominin): DRSC04684 -0.1
ova (ovaries absent): DRSC02879 0.1
Psf1 (Partner of Sld Five 1): DRSC08638 -0.2
knon (knotted onions): DRSC07049 -0.3
CG6142: DRSC15976 -0.4
CG32590: DRSC19594 -0.3
HDAC1 (Histone deacetylase 1): DRSC08696 0.8

Already shown: an excerpt of the list.
z-score, replicate 1, by gene and reagent
Ppr-Y: DRSC20892 -0.3
Ptpa (Phosphotyrosyl phosphatase activator): DRSC00776 -0.3
Pdhb (Pyruvate dehydrogenase E1 beta subunit): DRSC14420 0
luna: DRSC05253 -0.2; DRSC06663 3.1; DRSC07336 -0.1
l(2)SH0834 (lethal (2) SH0834): DRSC02854 0
unc-5: DRSC05545 -0.2; DRSC07711 -0.2; DRSC07712 -0.2
